From article PMC9616507
Results are given in words; binding and its absence hold for the method and conditions named. Binding seen in cells or lysates may run through a third protein. Some entries that bind do so weakly or less than the wild type.

Sequences of proteins named here, by UniProt entry; tags and fusion partners are left off.
UniProt Q8BQZ5: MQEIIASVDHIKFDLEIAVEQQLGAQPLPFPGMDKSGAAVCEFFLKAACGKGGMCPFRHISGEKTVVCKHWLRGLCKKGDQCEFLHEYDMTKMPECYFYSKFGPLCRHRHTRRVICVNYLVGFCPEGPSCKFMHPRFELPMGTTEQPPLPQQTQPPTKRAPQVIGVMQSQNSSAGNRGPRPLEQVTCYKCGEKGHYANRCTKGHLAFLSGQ

B1: PABPN1, Q86U42 1-306 (protein)
chain: MAAAAAAAAAAGAAGGRGSGPGRRRHLVPGAGGEAGEGAPGGAGDYGNGLESEELEPEELLLEPEPEPEPEEEPPRPRAPPGAPGPGPGSGAPGSQEEEEEPGLVEGDPGDGAIEDPELEAIKARVREMEEEAEKLKELQNEVEKQMNMSPPPGNAGPVIMSIEEKMEADARSIYVGNVDYGATAEELEAHFHGCGSVNRVTILCDKFSGHPKGFAYIEFSDKESVRTSLALDESLFRGRQIKVIPKRTNRPGISTTDRGFPRARYRARTTNYNSSRSRFYSGFNSRPRGRVYRGRARATSWYSPY

Key:
PABPN1 = biological target: T1, PABPN1 (UniProt Q86U42); test: co-IP; interaction reported as independent of mRNA / RNA-independent; cells, tags, bait and RNase treatment not told in the text shown
T1 sequence: B1 chain

PABPN1, Q86U42 = biological target: T2, PABPN1, Q86U42; test: as above; details: remark: other sources report otherwise
T2 chain: B1 chain

Molecule	binding (PABPN1)	binding (PABPN1, Q86U42)
CPSF4 (from UniProt Q8BQZ5 1-211)	binds	–
B1	–	binds
